Laboratory results published in patent US11230581B2, “Peptides and combination of peptides for use in immunotherapy against ovarian cancer and other cancers” (Immatics Biotechnologies GmbH, priority 2015, dated 2022).

Tests used:
ovarian cancer samples = assay: Relative LC-MS quantitation of HLA-presented peptides: presentation and over-presentation on ovarian cancer vs a panel of normal tissues (presentation score); parameters: species or system human; key: +++: very highly over-presented on tumors compared to a panel of normal tissues; ++: highly over-presented on tumors compared to a panel of normal tissues; +: over-presented on tumors compared to a panel of normal tissues; settings: over-presentation on tumors compared to a panel of normal tissues
additional tumor types = assay: LC-MS detection and over-presentation of the peptides on additional tumor types, cell lines and primary cultures; parameters: species or system human; settings: for peptide additionally detected on tumor samples (positive/measured): sample set of FIG. 1A-D
[1] = cell lines and primary cultures
[2] = leukocytic leukemia cancers (FIG. 1D: leukemias)

Substance: 4 (GIMEHITKI; listed as Homo sapiens) [compound 4]
- Peptide Presentation (presentation score) (ovarian cancer samples): +++

Substance: 12 (SLWPDPMEV; listed as Homo sapiens) [compound 12]
- Peptide Presentation (presentation score) (ovarian cancer samples): +++

Substance: 25 (FLPDEPYIKV; listed as Homo sapiens) [compound 25]
- Peptide Presentation (presentation score) (ovarian cancer samples): +++

Substance: 35 (KINDTIYEV; listed as Homo sapiens) [compound 35]
- Peptide Presentation (presentation score) (ovarian cancer samples): +++

Substance: 37 (LLWDVVTGQSV; listed as Homo sapiens) [compound 37]
- Peptide Presentation (presentation score) (ovarian cancer samples): +++

Substance: 39 (SVAPNLPAV; listed as Homo sapiens) [compound 39]
- Peptide Presentation (presentation score) (ovarian cancer samples): +++

Substance: 41 (SLMPHIPGL; listed as Homo sapiens) [compound 41]
- Peptide Presentation (presentation score) (ovarian cancer samples): +++

Substance: 44 (ILDPISSGFLL; listed as Homo sapiens) [compound 44]
- Peptide Presentation (presentation score) (ovarian cancer samples): +++

Substance: 46 (ILTEENIHL; listed as Homo sapiens) [compound 46]
- Peptide Presentation (presentation score) (ovarian cancer samples): +++

Substance: 50 (SLSELEALM; listed as Homo sapiens) [compound 50]
- Peptide Presentation (presentation score) (ovarian cancer samples): +++

Substance: 52 (FLLAHGLGFLL; listed as Homo sapiens) [compound 52]
- Peptide Presentation (presentation score) (ovarian cancer samples): +++

Substance: 53 (KMIETDILQKV; listed as Homo sapiens) [compound 53]
- Peptide Presentation (presentation score) (ovarian cancer samples): +++

Substance: 70 (GLLDYPVGV; listed as Homo sapiens) [compound 70]
- Peptide Presentation (presentation score) (ovarian cancer samples): +++

Substance: 89 (YILPTETIYV; listed as Homo sapiens) [compound 89]
- Peptide Presentation (presentation score) (ovarian cancer samples): +++

Substance: 90 (TLLQIIETV; listed as Homo sapiens) [compound 90]
- Peptide Presentation (presentation score) (ovarian cancer samples): +++

Substance: 96 (YIFTDNPAAV; listed as Homo sapiens) [compound 96]
- Peptide Presentation (presentation score) (ovarian cancer samples): +++

Substance: 99 (ALVSKGLATV; listed as Homo sapiens) [compound 99]
- Peptide Presentation (presentation score) (ovarian cancer samples): +++

Substance: 109 (IILSILEQA; listed as Homo sapiens) [compound 109]
- Peptide Presentation (presentation score) (ovarian cancer samples): +++

Substance: 112 (FLITSNNQL; listed as Homo sapiens) [compound 112]
- Peptide Presentation (presentation score) (ovarian cancer samples): +++

Substance: 113 (GLLPTPLFGV; listed as Homo sapiens) [compound 113]
- Peptide Presentation (presentation score) (ovarian cancer samples): +++

Substance: SLSEIVPCL (listed as Homo sapiens) [SEQ ID NO.: 512]
- number of samples with detectable presentation of the peptide (additional tumor types; cancer tissues, total): 9
- number of samples with detectable presentation of the peptide (additional tumor types; head and neck cancers): 1
- number of samples with detectable presentation of the peptide (additional tumor types; lung cancers): 2
- number of samples with detectable presentation of the peptide (additional tumor types; myeloid cell cancer): 1
- number of samples with detectable presentation of the peptide (additional tumor types; uterus cancers): 2

Substance: SLVESHLSDQLTL (listed as Homo sapiens) [SEQ ID NO.: 463]
- number of samples with detectable presentation of the peptide (additional tumor types; bile duct cancers): 1
- number of samples with detectable presentation of the peptide (additional tumor types; brain cancers): 2
- number of samples with detectable presentation of the peptide (additional tumor types; breast cancers): 2
- number of samples with detectable presentation of the peptide (additional tumor types; cancer tissues, total): 32
- number of samples with detectable presentation of the peptide (additional tumor types; [1]): 1
- number of samples with detectable presentation of the peptide (additional tumor types; head and neck cancers): 2
- number of samples with detectable presentation of the peptide (additional tumor types; [2]): 3
- number of samples with detectable presentation of the peptide (additional tumor types; liver cancers): 1
- number of samples with detectable presentation of the peptide (additional tumor types; lung cancers): 8
- number of samples with detectable presentation of the peptide (additional tumor types; lymph node cancers): 3
- number of samples with detectable presentation of the peptide (additional tumor types; skin cancers): 2
- number of samples with detectable presentation of the peptide (additional tumor types; urinary bladder cancers): 2
- number of samples with detectable presentation of the peptide (additional tumor types; uterus cancers): 1

Substance: TLAELQPPVQL (listed as Homo sapiens) [SEQ ID NO.: 57]
- number of samples with detectable presentation of the peptide (additional tumor types; bile duct cancers): 1
- number of samples with detectable presentation of the peptide (additional tumor types; brain cancers): 1
- number of samples with detectable presentation of the peptide (additional tumor types; cancer tissues, total): 32
- number of samples with detectable presentation of the peptide (additional tumor types; [1]): 4
- number of samples with detectable presentation of the peptide (additional tumor types; esophageal cancers): 2
- number of samples with detectable presentation of the peptide (additional tumor types; head and neck cancers): 3
- number of samples with detectable presentation of the peptide (additional tumor types; [2]): 2
- number of samples with detectable presentation of the peptide (additional tumor types; liver cancers): 1
- number of samples with detectable presentation of the peptide (additional tumor types; lung cancers): 9
- number of samples with detectable presentation of the peptide (additional tumor types; lymph node cancers): 4
- number of samples with detectable presentation of the peptide (additional tumor types; skin cancers): 2
- number of samples with detectable presentation of the peptide (additional tumor types; urinary bladder cancers): 1
- number of samples with detectable presentation of the peptide (additional tumor types; uterus cancers): 1

Substance: VLIANLEKL (listed as Homo sapiens) [SEQ ID NO.: 466]
- number of samples with detectable presentation of the peptide (additional tumor types; breast cancers): 3
- number of samples with detectable presentation of the peptide (additional tumor types; cancer tissues, total): 17
- number of samples with detectable presentation of the peptide (additional tumor types; [1]): 5
- number of samples with detectable presentation of the peptide (additional tumor types; esophageal cancers): 2
- number of samples with detectable presentation of the peptide (additional tumor types; liver cancers): 1
- number of samples with detectable presentation of the peptide (additional tumor types; lung cancers): 2
- number of samples with detectable presentation of the peptide (additional tumor types; lymph node cancers): 5
- number of samples with detectable presentation of the peptide (additional tumor types; urinary bladder cancers): 1

Substance: VLVSDGVHSV (listed as Homo sapiens) [SEQ ID NO.: 6]
- peptide additionally detected on tumor samples (positive/measured) (additional tumor types; Merkel cell carcinomas): 1/2
- peptide additionally detected on tumor samples (positive/measured) (additional tumor types; breast cancers): 1/6

Substance: VMNDRLYAI (listed as Homo sapiens) [SEQ ID NO.: 587]
- number of samples with detectable presentation of the peptide (additional tumor types; cancer tissues, total): 38
- number of samples with detectable presentation of the peptide (additional tumor types; [2]): 14
- number of samples with detectable presentation of the peptide (additional tumor types; lymph node cancers): 10
- number of samples with detectable presentation of the peptide (additional tumor types; prostate cancers): 1
- number of samples with detectable presentation of the peptide (additional tumor types; uterus cancers): 4

Substance: YLMDINGKMWL (listed as Homo sapiens) [SEQ ID NO.: 184]
- number of samples with detectable presentation of the peptide (additional tumor types; breast cancers): 1
- number of samples with detectable presentation of the peptide (additional tumor types; cancer tissues, total): 19
- number of samples with detectable presentation of the peptide (additional tumor types; [1]): 1
- number of samples with detectable presentation of the peptide (additional tumor types; gallbladder cancer): 1
- number of samples with detectable presentation of the peptide (additional tumor types; [2]): 1
- number of samples with detectable presentation of the peptide (additional tumor types; lung cancers): 6
- number of samples with detectable presentation of the peptide (additional tumor types; lymph node cancers): 2
- number of samples with detectable presentation of the peptide (additional tumor types; skin cancers): 2
- number of samples with detectable presentation of the peptide (additional tumor types; uterus cancers): 1

Substance: YLNHLEPPV (listed as Homo sapiens) [SEQ ID NO.: 166]
- number of samples with detectable presentation of the peptide (additional tumor types; brain cancers): 3
- number of samples with detectable presentation of the peptide (additional tumor types; breast cancers): 1
- number of samples with detectable presentation of the peptide (additional tumor types; cancer tissues, total): 20
- number of samples with detectable presentation of the peptide (additional tumor types; [1]): 2
- number of samples with detectable presentation of the peptide (additional tumor types; esophageal cancers): 1
- number of samples with detectable presentation of the peptide (additional tumor types; [2]): 3
- number of samples with detectable presentation of the peptide (additional tumor types; liver cancers): 2
- number of samples with detectable presentation of the peptide (additional tumor types; lung cancers): 4
- number of samples with detectable presentation of the peptide (additional tumor types; lymph node cancers): 2
- number of samples with detectable presentation of the peptide (additional tumor types; myeloid cell cancer): 1
